Measured values taken from patent US20160122315A1, “CRYSTALLINE IMATINIB MESYLATE PROCESS” (SHILPA MEDICARE LIMITED, priority 2013, published 2016).

Settings: storage time; solid crystalline form

Compound: Cc1ccc(NC(=O)c2ccc(CN3CCN(C)CC3)cc2)cc1Nc1nccc(-c2cccnc2)n1 [Form-SA, 4-[(4-Methyl-1-piperazinyl)methyl]-N-[4-methyl-3-[[4-(3-pyridinyl)-2-pyrimidinyl]amino]-phenyl]benzamide methanesulfonate]
- adequately stable to handle and store without any significant or measurable change in morphology and physicochemical characteristics: more than 6 months
